Test results: PMC11421016, “Biotransformation and Epithelial Toxicity of Prenylated Phenolics from Licorice Roots (Glycyrrhiza spp.) in 3D Apical-Out Mucus-Producing Human Enteroids” (Journal of Agricultural and Food Chemistry, 2024)

Each compound was assayed on human ileal apical-out enteroids (assay: Cytotoxicity by LDH leakage assay in apical-out enteroids). Details: apical-out enteroids vs MIC against Gram-positive bacteria (ref 17).
Assay type: cell-based
Procedure: Cytotoxicity and effects on cell viability after exposure to glab, licoA, and glycy in apical-out and apical-in enteroids (6.25–500 μg mL^–1) and proliferating Caco-2 cells (3.13–100 μg mL^–1) were determined by LDH leakage (Section 2.6.1) and WST-1 assays (Section 2.6.2), respectively. For this, stock solutions of 50 mg mL^–1 of glab, licoA, and glycy in DMSO were used. […] An overview of the experimental conditions for the exposure experiments with glab, licoA, and glycy is shown in Table S2 (Supporting Information). In brief, apical-out and apical-in enteroids were grown for 7–10 days in OGM (∼200 enteroids per dome), after which the medium was changed to ODM (supplemented with 5 μM DAPT) to initiate enteroid differentiation. To generate apical-out enteroids, MG was removed from apical-in enteroids in OGM at day 7–10, as described in Section 2.3, and suspended in supplemented ODM. After 3 days in ODM, the effects on cytotoxicity and cell viability of glab, licoA, and glycy in apical-out and apical-in enteroids (passages between 3 and 17) were assessed after 4 and 24 h of incubation. For apical-out enteroids in a suspension, enteroids were pelleted by centrifugation (2 min, 200g, RT), after which the ODM was removed and 500 μL of the experimental agent was added. […]
Cytotoxic effects of glab, licoA, and glycy were assessed by measuring leakage of intracellular lactate dehydrogenase (LDH) in the supernatant and analyzed using an LDH cytotoxicity detection kit (Roche Applied Science, Almere, The Netherlands), according to the manufacturer’s instructions. The LDH activity in the supernatant was expressed as the percentage of the maximum releasable LDH in enteroids or Caco-2 cells (enteroids or Caco-2 cells treated with 1% (v/v) Triton X-100) and calculated with eq 1. […] 1 in which exp. value is the UV absorbance at 492 nm (Tecan Spark or Tecan Infinite 200 Pro, Tecan Group Ltd., Zürich, Switzerland), background control is the medium with corresponding concentration of glab, licoA, or glycy, and high control is the maximum releasable LDH in enteroids or Caco-2 cells. […]
In the case of `C=CC(C)(C)c1cc(/C=C/C(=O)c2ccc(O)cc2)c(OC)cc1O` [licochalcone A], the “highest nontoxic concentration relative to MIC” value is reported as “at least 40 times”.
With `COc1c(CC=C(C)C)c(O)cc2oc(=O)c(-c3ccc(O)cc3O)cc12` [glycycoumarin] the “highest nontoxic concentration relative to MIC” value was “at least 40 times”.
With `CC1(C)C=Cc2c(ccc3c2OC[C@@H](c2ccc(O)cc2O)C3)O1` [glabridin] the “highest nontoxic concentration relative to MIC” value was 20 times.
